Results are given in words; binding and its absence hold for the method and conditions named. A result given as binding can be weak or reduced; the word gives no strength.
B1: chimeric 2c3 antibody (2c3 light and heavy variable regions, human IgG1/kappa) (antibody, V domains shown)
VH: EVQLQQSGPELVKPGASMKISCKASGYSFTDYTMNWVKQSHGKNLEWIGLINPYNGGTSYNQNFKGKATLTVDKSSSTAYMELLSLTSEDSAVYYCAREGYDGYLYFAMDYWGQGTSVTVSS
VL: DIQMTQTTSSLSASLGDRVTISCSASQGISNYLNWYQQKADGTVELLIYYTSSLHSGVPSRFSGSGSGTDYSLTISNLEPEDIATYYCQQYSKLPYTFGGGTKLEIK
B2: humanised antibody RH2.5 (antibody, V domains shown)
VH: EVQLVESGAEVKKPGASVKVSCKASGYSFSGYTMNWVRQAPGQRLEWMGLINPYNGGTSYNQNFKGRVTLTRDTSASTAYLELNSLRSEDTGVYYCAREDYDGYLYFAMDYWGQGTLVTVSS
VL: DIQMTQSPSSLSASVGDRVTITCSASQGISNYLNWYQQKPGKVPKLLIYYTSSLHSGVPSRFSGSGSGTDFTLTISSLQPEDVATYYCQQYSKLPYTFGQGTKLEIK
B3: humanised antibody RH2.5_S30T (antibody, human IgG1, V domains shown)
VH: EVQLVESGAEVKKPGASVKVSCKASGYSFTGYTMNWVRQAPGQRLEWMGLINPYNGGTSYNQNFKGRVTLTRDTSASTAYLELNSLRSEDTGVYYCAREDYDGYLYFAMDYWGQGTLVTVSS
VL: DIQMTQSPSSLSASVGDRVTITCSASQGISNYLNWYQQKPGKVPKLLIYYTSSLHSGVPSRFSGSGSGTDFTLTISSLQPEDVATYYCQQYSKLPYTFGQGTKLEIK
B4: humanised antibody RH2.5_R71V (antibody, human IgG1, V domains shown)
VH: EVQLVESGAEVKKPGASVKVSCKASGYSFSGYTMNWVRQAPGQRLEWMGLINPYNGGTSYNQNFKGRVTLTVDTSASTAYLELNSLRSEDTGVYYCAREDYDGYLYFAMDYWGQGTLVTVSS
VL: DIQMTQSPSSLSASVGDRVTITCSASQGISNYLNWYQQKPGKVPKLLIYYTSSLHSGVPSRFSGSGSGTDFTLTISSLQPEDVATYYCQQYSKLPYTFGQGTKLEIK
B5: antibody of humanised light chain RKA with chimeric 2c3 heavy chain (antibody, V domains shown)
VH: EVQLQQSGPELVKPGASMKISCKASGYSFTDYTMNWVKQSHGKNLEWIGLINPYNGGTSYNQNFKGKATLTVDKSSSTAYMELLSLTSEDSAVYYCAREGYDGYLYFAMDYWGQGTSVTVSS
VL: DIQMTQSPSSLSASVGDRVTITCSASQGISNYLNWYQQKPGKVPKLLIYYTSSLHSGVPSRFSGSGSGTDFTLTISSLQPEDVATYYCQQYSKLPYTFGQGTKLEIK

The chains behind the UniProt entries cited, without tags or fusion partners. Where a name states a change or a piece, a line headed by the entry shows the natural chain unless it says otherwise.
UniProt Q9H293: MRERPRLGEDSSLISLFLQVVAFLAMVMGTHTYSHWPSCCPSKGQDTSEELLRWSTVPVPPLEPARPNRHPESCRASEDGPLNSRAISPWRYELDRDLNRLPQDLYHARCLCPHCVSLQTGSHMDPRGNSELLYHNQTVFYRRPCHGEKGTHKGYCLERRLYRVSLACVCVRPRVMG

Experiments:
[1] = target: human IL-25 (R&D Systems) (human) (UniProt Q9H293); assay: ELISA, plate coated with human IL-25, HEK293T supernatants
[2] = target: human IL-25 (R&D Systems) (human) (UniProt Q9H293); assay: ELISA on IL-25 after 10 minutes at various temperatures
[3] = target: human IL-25 (R&D Systems) (human) (UniProt Q9H293); assay: ELISA, plate coated with human IL-25

Row | Binder | binding [1] | binding [2] | binding [3]
1 | B1 | binds | binds | –
2 | B2 | – | – | binds
3 | B3 | – | binds | binds
4 | B4 | – | binds | binds
5 | B5 | binds | – | –

From patent publication US20110250195A1
